Laboratory results: PubChem BioAssay AID595 (National Center for Advancing Translational Sciences (NCATS), 2007)
Several values for one entry are separate records, joined by “and”; a condition that tells them apart may be missing. Identical values can stand only once. Among all 71,000 compounds or so, about 310 (0.44%) were called active. The inconclusive results got no clear call from the source; some entries with a clear call stand among them for comparison. Calls follow the shape of the dose curve; as a rule, active = well fitted curve in either direction with a large enough effect; inconclusive = small, poorly fitted or top-dose-only effect, or another doubt; inactive = flat fitted curve, though single readings scatter. A potency beside an inconclusive call is a rough fit, not a confirmed value.

What follows are compounds tested on Hsp90 C-terminal peptide / TPR2A (Hop) interaction, human (assay: qHTS Assay for Disrupters of an Hsp90 Co-Chaperone Interaction). Conditions: AlphaScreen TPR2A-His6 binding biotin-Hsp90 C-terminal peptide; activity change, negative = inhibition: at 57 µM (top of the series) unless noted.
From the text: NIH Chemical Genomics Center [NCGC]
NIH Molecular Libraries Screening Centers Network [MLSCN]
Hsp90 (heat shock protein 90) is the essential molecular chaperone and it accounts for 1-2% of all cytosolic proteins and is critical for the activity of diverse cellular proteins that are involved in a variety of cellular processes, including development, cell cycle, and steroid hormone signaling. Its client proteins include signaling kinases such as IGF1R, Akt, v-Src, Raf-1; regulators of cell survival such as Bcr-Abl; and transcription factors such as mutated p53, estrogen and progesterone receptors. Hsp90 has emerged as an important target for cancer treatment due to its essential role in maintaining transformation and regulating the function of oncogenic signaling proteins.
The in vivo function of Hsp90 is regulated by the binding and hydrolysis of ATP at its N-terminal. Geldanamycin binds to ATP site and inhibit Hsp90 function. Geldanamycin and its analogues are under clinical trials in cancer patients.
This domain contains the binding site for tetratricopeptide repeat (TPR) domains on HOP (Hsp Organizing Protein). TPR is a structural motif used by a significant number of cochaperones by which the in vivo function of Hsp90 is regulated. TPR2A on HOP binds specifically to MEEVD motif of the C-terminal of Hsp90.
A homogeneous AlphaScreen is developed to assess the interaction between TPR2A and MEEVD motif of the C-terminal of Hsp90 by using the isolated TPR2A domain and a synthesized 20mer Hsp90 C terminal peptide. AlphaScreen is two bead-based proximity-dependent chemical energy transfer luminescent assay platform. TPR2A-His-6 and biotinylated Hsp90 C terminal peptide will bring streptavidin donor beads and nickel chelate acceptor beads to a proximity range (less than 200 nm), and subsequently lead a chemical luminescent reaction upon exciting donor beads with 680 nm laser. Inhibition of TPR2A and MEEVD motif interaction by small molecules could attenuate or abolish this chemical luminescent reaction.
Counter screening: Biotinylated-His-6 (PerkinElmer) can be utilized as a counter screen, as it serves as a linker to bring streptavidin beads and nickel chelate beads together. The counter screen can exclude alpha screen platform false positives due to small molecules being metal chelators, biotin analogues and imidazole analogues, or due to interfering with oxygen release from donor beads. Such an assay should be utilized to qualify any activity observed in this screen.
NCGC Assay Protocol Summary:
The assay was performed on 1536-well white plate (untreated solid bottom). Liquids were dispensed by 1536-well plate washer (Kalypsys, San Diego, CA). Plates were read on EnVision (PerkinElmer, Boston, MA).TPR2A-His6 was produced using a bacteria expression system and purified using a well developed method (Ghosh et al., 2000). Hsp90 C terminal 20-mer peptide with or without an N-terminal biotin group are synthesized using automated solid phase synthesis by the Yale Keck facility. The composition of assay buffer was (in mM) 25 HEPES, 100 KCl, 2 MgCl2 and 2 DTT; 0.1% BSA and 0.01% Tween-20. TPR2A-His6 binding to biotin-Hsp90 will bring streptavidin donor beads and nickel chelate acceptor beads (PerkinElmer) together and can be measured by Alpha reading by EnVision (PerkinElmer). Free Hsp90 blocks biotin-Hsp90 binding to TPR2 and serves as a positive control in the current asssay.
The assay was performed at room temperature. All compounds were screened as titrations from […] to 46 uM final concentration. The assay was performed in 1536-well format plates (untreated white solid bottom, Corning Inc.) as follows:
Sequence,Parameter,Value,Description
1,Reagent,3 uL TPR2A-His6,Final concentration was 5nM
2,Compound,23 nL,Final titration was from 0.7 nM to 46 uM
3,Time,15 minutes,Room temperature
4,Reagent,1 uL biotin-Hsp90,With and without free Hsp90. Final concentration was 10 nM for biotin-Hsp90 and 10uM for free Hsp90.
5,Time,1 hour,Room temperature
[…]
% is scaled to controls: 0 for no effect and ±100 for the full control effect; potency is read from the fitted curve at half-maximal effect.

Structure (SMILES)	Potency	activity change, negative = inhibition
CCn1nc(-c2cccs2)nc2c(=O)n(C)c(=O)nc1-2	active: 1.58 µM	–
CCCCCn1c(N)c(C(=O)NCCN2CCOCC2)c2nc3ccccc3nc21	inconclusive: 20 µM [activator, partial curve]	–
CN1CCN(c2ccc(NC(=O)C(C)(C)C)cc2)CC1	–	inactive: -0.122%
Cc1cc(S(=O)(=O)NC(C)C)ccc1OCC(=O)N1CCN(Cc2ccc3c(c2)OCO3)CC1	–	inconclusive: 43.2%
c1cnc(N2CCCC3(CCNCC3)C2)nc1	–	inactive: -1.89%
CN(C)c1ccc(N=O)cc1	–	inactive: -5.61%
c1ccc2c(c1)-c1cccc3cccc-2c13	active: 31.6 µM [activator]	–
C[C@]12CCC(=O)C=C1CC[C@@H]1[C@@H]2CC[C@@]2(C)[C@H]1CC[C@]2(C)O	–	inconclusive: 52.4%
C=CCn1c(O)c(C(CC)=Nc2cc(OC)ccc2OC)c(=O)[nH]c1=O	–	inactive: -6.15%
CCC(=NCCCN(CC)CC)c1c(O)n(C2CCCCC2)c(=O)[nH]c1=O	–	inconclusive: 40%
O=C(Cn1ncc2ccccc21)N1CCC2(CC1)OCCO2	–	inactive: 3.63%
O=C(CCCN1CCC2(CC1)C(=O)N(CCc1ccc(N=C=S)cc1)CN2c1ccccc1)c1ccc(F)cc1	inconclusive: 15.8 µM [inhibitor, partial curve]	–
CC(=O)CCC(C)=O	–	inactive: -3.12%
O=c1[nH]c(=O)n(Cc2ccccc2)c(O)c1C=NCCCn1ccnc1	active: 15.8 µM	–
Cc1noc(C)c1C(=O)N1CCC2(CC1)OCCO2	–	inactive: -2.22%
NS(=O)(=O)c1ccc(-c2ccc([As](=O)(O)O)cc2)cc1	–	inconclusive: 94.5% [at 11 µM]
CC1CCC(NCCc2ccc3c(c2)OCO3)CC1 (configuration not stated)	–	inconclusive: 75.4%
C[C@@H](Cc1ccc(Cl)cc1Cl)NO	–	inactive: -3.54% [at 11 µM]
CC(=NCCCn1ccnc1)c1c(O)n(C)c(=O)n(C)c1=O	inconclusive: 31.6 µM [inhibitor, single point]	–
CCCNC(=O)c1c(N)n(CC2CCCO2)c2nc3ccccc3nc12 (configuration not stated)	inconclusive: 31.6 µM [activator, single point]	–
CC[C@H](C)C(=O)O[C@@H]1[C@H](O)[C@@H]2[C@H](CN3C[C@@H](C)CC[C@@H]3[C@@]2(C)O)[C@@H]2C[C@@]34O[C@@]5(O)[C@@H](OC(=O)[C@](C)(O)CC)CC[C@@]3(C)[C@H]5[C@H](OC(C)=O)[C@@H](OC(C)=O)[C@H]4[C@]12O	–	inactive: -7.62% [at 26 µM]
Clc1ccc(C(c2ccccc2Cl)C(Cl)(Cl)Cl)cc1 (configuration not stated)	inconclusive: 31.6 µM [activator, partial curve]	–
CCCCCCCCCCCC[N+](C)(C)CCOc1ccccc1	–	inconclusive: 53.8%
C[C@@H]1O[C@@H](O[C@H]2C[C@@H](O)[C@@]3(CO)[C@H]4[C@H](O)C[C@]5(C)[C@@H](C6=CC(=O)OC6)CC[C@]5(O)[C@H]4CC[C@@]3(O)C2)[C@@H](O)[C@H](O)[C@H]1O	–	inactive: -3.39% [at 11 µM]
O=c1ccc2[nH]cc(C3=CCNCC3)c2[nH]1	–	inactive: -6.09%
CCCCOC(=O)C1=C(N)OC2=C(C(=O)CCC2)[C@]12C(=O)N(C)c1ccccc12	–	inconclusive: 42.2%

Structure (SMILES)	Potency	activity change, negative = inhibition
CN(C)CP(=O)(O)CN(C)C=O	–	inconclusive: 46.8%
O=S1(=O)N(CCN2CC=C(c3c[nH]c4cc(F)ccc34)CC2)c2cccc3c2N1CCC3	inconclusive: 25.1 µM [inhibitor, partial curve]	–
O=C1CN(C(=O)CN2CCCCC2)C(c2ccccc2)c2cc(Br)ccc2N1 (configuration not stated)	–	inconclusive: 85.5%
CN(C)c1ccc(N)cc1	inconclusive: 31.6 µM [inhibitor, partial curve]	–
Nc1ccccc1C(=O)OCCc1ccccc1	inconclusive: 39.8 µM [activator, single point]	–
C=CCN1C[C@H](C)N([C@@H](c2ccccc2)c2ccc(C(=O)N(CC)CC)cc2)C[C@H]1C	–	inconclusive: 55.1%
O=C1C(Cl)=C(Cl)C(=O)C(Cl)=C1Cl	–	inactive: -4.55%
COCCOC(=O)C1=C(C)OC(N)=C(C(=O)OC)C12C(=O)Nc1ccccc12 (configuration not stated)	–	inconclusive: 38.1%
O=C1CCO1	–	inconclusive: 54.8%
O=C1C2CCN(CC2)C1(CO)CO	–	inconclusive: 64.1%
N#C/C(=C\c1ccc(O)c(O)c1)C(N)=S	inconclusive: 12.6 µM [inhibitor, partial curve]	–
O=C(O)CSCC(=O)O	–	inconclusive: 69.1% [at 11 µM]
O=C1C2(Cl)C3(Cl)C4(Cl)C(Cl)(Cl)C5(Cl)C3(Cl)C1(Cl)C5(Cl)C24Cl (configuration not stated)	–	inconclusive: 38.2%
CCC(C)NC(=O)c1c(N)n(CC2CCCO2)c2nc3ccccc3nc12 (configuration not stated)	inconclusive: 25.1 µM [activator, single point]	–
O=C(O)[C@@H]1C[C@H]2C[C@@H](CP(=O)(O)O)CC[C@H]2CN1	–	inactive: 4.37%
O=S(=O)(O)F	–	inconclusive: 50.1%
COc1ccc(OCC(=O)N2CCN(Cc3c[nH]c4ccccc34)CC2)cc1	–	inconclusive: 33.7%
CC(C)OCCCNC(=O)c1c(N)n(Cc2cccs2)c2nc3ccccc3nc12	inconclusive: 31.6 µM [activator, single point]	–
COc1ccc(NC(=O)N2CCC3(CC2)CCN(C(=O)Oc2ccccc2)CC3)cc1	–	inconclusive: 53.7%
CCOP(=S)(OCC)c1ccc(N(C)C)cc1	inconclusive: 25.1 µM [activator, single point]	–
COc1cc(CN2C(=O)NC(=O)C3(Cc4cc(C)ccc4N(C)C3)C2=O)cc(OC)c1 (configuration not stated)	–	inactive: -0.574%
CCCC1=C(C(=O)OCC)C2(C(=O)Nc3ccc(C)cc32)C(C#N)=C(N)O1 (configuration not stated)	–	inconclusive: 55.3%
C[C@@H]1[C@H]2C=C[C@@H]1[C@@H](c1c3ccc(=O)c(O)c-3oc3c(O)c(O)ccc13)[C@@H]2C(=O)O	inconclusive: 3.16 µM [inhibitor, partial curve]	–
C=CCN1CCc2cccc3c2[C@@H]1Cc1ccc(O)c(O)c1-3	–	inconclusive: 24.1%
CCCCCn1c(=O)c(C(=O)NCc2ccccn2)c(O)c2ccccc21	inconclusive: 25.1 µM [activator, single point]	–
CC1=NN=C(c2ccc(N)cc2)c2cc3c(cc2C1)OCO3	inconclusive: 31.6 µM [inhibitor, partial curve]	–

Structure (SMILES)	Potency	activity change, negative = inhibition
CC12CCCCC1=[N+]([O-])CN2O (configuration not stated)	–	inconclusive: 84.7%
CC(C)N(CC[C@@](C(N)=O)(c1ccccc1)c1ccccn1)C(C)C	–	inconclusive: 68.9%
COc1ccc(C(c2ccc(OC)cc2)C(Cl)(Cl)Cl)cc1	inconclusive: 31.6 µM [activator, single point] and inconclusive: 39.8 µM [activator, single point]	–
COc1ccccc1-n1c(-c2ccoc2)nc2ccccc2c1=O	–	inconclusive: 37.8%
C=C[C@@H]1CN2CC[C@@H]1C[C@H]2[C@H](O)c1ccnc2ccccc12	–	inactive: 3.99%
O=C1C[C@H]2OCCC=C3CN4CC[C@@]56c7ccccc7N1[C@@H]5[C@H]2[C@H]3C[C@@H]46	–	inactive: 1.66%
CCOP(=S)(OCC)Oc1nc(Cl)c(Cl)cc1Cl	inconclusive: 31.6 µM [activator, partial curve]	–
C[n+]1c(/C=C\c2ccc(O)c3ncccc23)[se]c2ccccc21	active: 3.16 µM	–
c1ccc2oc(N3CCNCC3)nc2c1	–	inconclusive: 40.5%
c1ccc(Nc2ccc(Nc3ccccc3)cc2)cc1	inconclusive: 25.1 µM [inhibitor, partial curve]	–
COC(=O)[C@@H]1C[C@@]1(C)[C@@H](NP(=O)(c1ccccc1)c1ccccc1)c1ccccc1	–	inactive: -1.05%
C[C@@H]1CC[C@@]2(OC1)O[C@H]1[C@@H](O)[C@H]3[C@@H]4CC[C@H]5C[C@@H](O[C@@H]6O[C@H](CO)[C@H](O[C@@H]7O[C@H](CO)[C@@H](O)[C@H](O[C@@H]8OC[C@@H](O)[C@H](O)[C@H]8O)[C@H]7O[C@@H]7O[C@H](CO)[C@@H](O)[C@H](O[C@@H]8O[C@H](CO)[C@@H](O)[C@H](O)[C@H]8O)[C@H]7O)[C@H](O)[C@H]6O)[C@H](O)C[C@]5(C)[C@H]4CC[C@]3(C)[C@H]1[C@@H]2C	–	inactive: -8.74%
COC1=CC(=O)O[C@@H](/C=C/c2ccc3c(c2)OCO3)C1	–	inconclusive: 46.2%
C[C@H](Br)CN(C[C@H](C)Br)c1ccc2c(c1)Cc1ccccc1-2	–	inconclusive: 69.3% [at 11 µM]
Cc1ccc2c(c1N)C(=O)c1ccccc1C2=O	–	inactive: -20.4%
Cc1ccc2c(c1)CNc1ccccc1O2	–	inactive: 1.22%
O=C(Oc1ccccc1)N1CCC2(CC1)CN(Cc1ccncc1)C2	–	inactive: -0.847%
O=C1C2CC=CCC2C(=O)N1SC(Cl)(Cl)Cl (configuration not stated)	–	inactive
N#CC(C#N)=Cc1cc(O)c(O)c(O)c1	active: 7.94 µM	–
CCCCn1c(N)c(C(=O)NCCN2CCOCC2)c2nc3ccccc3nc21	inconclusive: 25.1 µM [activator, single point]	–
CN1CCN(C(=O)COc2ccc3ccccc3c2Br)CC1	active: 2.51 µM [activator]	–
CCCCCCCCCOc1ccc2[nH]cc(CCN)c2c1	–	inactive: -18.9%
Cc1cc(C)cc(OP(=O)(Oc2cc(C)cc(C)c2)Oc2cc(C)cc(C)c2)c1	–	inconclusive: 200%
Cc1nc(-c2ccc(-c3ccc(C(=O)N4CCc5cc6c(cc54)C4(CCN(C)CC4)CO6)cc3)c(C)c2)no1	inconclusive: 31.6 µM [inhibitor, partial curve]	–
N[C@@H](Cc1cc(O)c(O)cc1O)C(=O)O	active: 7.94 µM	–
